Test results from patent publication US10016383B2, “Inhibitors of metallo-β-lactamase-enzymes” (McMaster University, priority 2013, dated 2018).

Tested on: E. coli BW25113
Test: Microdilution checkerboard / MIC
Type: cell-based
Conditions: Escherichia coli, meropenem alone, carbapenem sensitive strain
Procedure: FIC values were determined by standard methods^27 setting up checkerboards with 8 concentrations of each meropenem and AM-A in serial ½ dilutions. Experiments were done in duplicate and the mean used for calculation. The MIC for each compound was the lowest concentration of compound showing no growth. The FIC for each compound was calculated as the concentration of the compound in the presence of co-compound for a well showing no growth, divided by the MIC for that compound. The FIC index is the sum of the two FICs.

For `C[C@@H](O)[C@H]1C(=O)N2C(C(=O)O)=C(S[C@@H]3CN[C@H](C(=O)N(C)C)C3)[C@H](C)[C@H]12` [meropenem, reference compound], the MIC was 0.008 to 0.016 µg/mL.
